Molecules are shown by their SMILES. The list shows a part of the results. Rule as the data show it: active = 2 or more and inactive = the rest. Single values are uncertain here, since repeats match poorly.

We go through 110 compounds from the supplement of paper PMC4683952.

This experiment relates to Lgr5 (MarsCy1-Lgr5-EGFP, U2OS). In words: cell-surface Lgr5 expression (SCi1 fluorescence, background-subtracted) relative to WT DMSO (fold of DMSO control); higher = more Lgr5 at the plasma membrane. As to conditions: U2OS MarsCy1-Lgr5-EGFP stable; treatment time: overnight; library: ActiProbe-5K (TimTec); 25 µM.
As to `Cc1nnc(SCC(=O)NC(=O)CSc2nnc(C)s2)s1`, the “cell-surface Lgr5 expression” value is inactive: 1.08.
The result for `O=C(O)[C@@H]1CSC2(CCCCC2)N1` reads inactive: 1.09; that for `O=C1N(CN2CCC3(CC2)OCCO3)c2ccccc2C12OCCO2`, inactive: 1.32.
The value for `COCc1[nH]nc2c1C1(CCC(C(C)(C)C)CC1)C(C#N)=C(N)O2` (stereo not given) was inactive: 0.973; that for `I.Nc1nc2c(s1)CCCC2` was inactive: 1.02.
The result for `CN(C)c1nc(N)nc(CN(C)S(=O)(=O)c2ccccc2)n1` reads inactive: 0.999.
As to `CC1(C)CCC2(C)CCC(C)(C)NC2=N1` (stereo not given), the “cell-surface Lgr5 expression” value is inactive: 1.25.
The value for `Clc1ncnc2c1ncn2C1CCCCO1` (stereo not given) was inactive: 1.16.
On to `C/C(=N\O)c1ccc(/C(C)=N/O)cc1`, for which the “cell-surface Lgr5 expression” value is inactive: 1.2.
The result for `Nc1ccc[n+](Cc2ccccn2)c1.[Br-]` reads inactive: 1.59.
The result for `NC(=O)C1(N2CCCCC2)CCN(C(=O)CN2CCNCC2)CC1` reads inactive: 1.14; that for `OC(c1ccccc1)C(O)(c1ccccc1)c1ccccc1` (stereo not given), inactive: 1.53; that for `CCOC(=O)c1sc(N)c(C(=O)OCC)c1C`, inactive: 1.19.
Take `CCC(C)C(=O)N1CC(C)OC(C)C1` (stereo not given): the “cell-surface Lgr5 expression” value was inactive: 0.971.
The value for `COc1cc(/C=N\O)c([N+](=O)[O-])cc1OC` was inactive: 1.3.
The result for `C1CCC(=N/n2cnnc2)/CC1` reads inactive: 1.23; that for `Cc1cccn2c(=O)c(/C=C3/SC(=S)N(C)C3=O)c(N3CCCCC3)nc12`, inactive: 0.912; that for `O=Cc1ccc(Sc2ccccc2)c([N+](=O)[O-])c1`, inactive: 1.48.
Regarding `O/N=C1/c2ccccc2-c2ncccc21`, the “cell-surface Lgr5 expression” value was inactive: 0.468.
The value for `C1(/C(CC(CC1=O)(C)C)=O)=C/NC(CO)(CO)CO` was inactive: 1.14; that for `Cn1c2c(c(=O)n(C)c1=O)C(O)(c1ccc(Br)cc1)N=C1SC=CN1C2` (stereo not given) was inactive: 0.923.
The value for `FC(F)(F)c1ccc2nnc(-c3c(Cl)cccc3Cl)n2c1` was inactive: 0.963; that for `N#Cc1c(C(F)(F)F)cc(-c2ccco2)[nH]c1=S` was inactive: 1.02; that for `Cc1ncc(C[n+]2csc(CCO)c2C)c(N)n1.Cl.[Cl-]` was inactive: 1.24.
The result for `O=S(=O)(Nc1ccccn1)c1cc(Cl)ccc1Cl` reads inactive: 1.01; that for `Oc1ccc(-c2cnc3ccncc3n2)cc1`, inactive: 1.15.
As for `Cc1oc(CSCCSCc2cc(C(=O)O)c(C)o2)cc1C(=O)O`, the “cell-surface Lgr5 expression” value was inactive: 1.46.
Regarding `Clc1ccc(CNCC2CCCO2)cc1` (stereo not given), the “cell-surface Lgr5 expression” value is inactive: 1.36.
In the case of `C[N+]1(CC[N+]2(C)CCCCC2)CCCCC1`, the “cell-surface Lgr5 expression” value is inactive: 1.15.
The value for `COCc1nnc(N)s1` was inactive: 0.998; that for `CCN(CC)c1nc(OC)nc(C(N)=O)n1` was inactive: 1.02.
The value for `CC12CC3CC(C)(C1)CC(N)(C3)C2` was inactive: 1.3; that for `Nc1[nH]c(=S)sc1C(=O)Nc1nccs1` was inactive: 0.982.
The value for `Cn1c(=O)n(C)c2cc(Br)c(Br)cc21` was inactive: 0.902; that for `O=[N+]([O-])c1cc(Oc2ccc(F)c(Cl)c2)cc(-n2cnnn2)c1` was inactive: 1.46; that for `c1ccc2c(c1)nnn2CN1CCN(c2ccc3c(c2)OCO3)CC1` was inactive: 0.921.
As for `CCc1sc(C(C2C(=O)CC(C)(C)CC2=O)C2C(=O)CC(C)(C)CC2=O)cc1Br`, the “cell-surface Lgr5 expression” value was inactive: 1.09.
The value for `Cc1cc2nc(O)c(CCO)c(C)n2n1` was inactive: 1.09; that for `CCCCCC1CCC(/C(C)=N/NC(N)=O)CC1` (stereo not given) was inactive: 1.36; that for `Nc1ccc(N2CCOCC2)c(S(=O)(=O)N2CCOCC2)c1` was inactive: 1.16.
The result for `Oc1nc2cc(Br)cnc2nc1O` reads inactive: 1.43; that for `CCn1cc(Br)c(C(=O)N2CCN3CCCC3C2)n1` (stereo not given), inactive: 1.11; that for `CCOC(=O)c1c(N)sc(C(C)=O)c1C`, inactive: 1.41.
The value for `O=C(NC1CCCCCC1)c1ccco1` was inactive: 0.985; that for `O=[N+]([O-])c1ccc(Nc2ccc(Br)c(Cl)c2)c([N+](=O)[O-])c1` was active: 2.49; that for `Nc1cc(=O)[nH]c(=S)n1C1CC1` was inactive: 1.26.
`Cn1nc(C(=O)NN)c(Br)c1C(F)(F)F`: the “cell-surface Lgr5 expression” value is inactive: 1.13.
The result for `O=C(CC1(C(F)(F)C(F)F)NCCN1)c1cccs1` reads inactive: 1.13.
The result for `c1ccc(-n2nnnc2SC2c3ccccc3-c3ccccc32)cc1` reads inactive: 0.985.
The result for `Cn1cnc([N+](=O)[O-])c1C(=O)O` reads inactive: 0.911; that for `OCCCNc1nn2c(C(F)(F)C(F)(F)F)nnc2c2ccccc12`, inactive: 1.37.
As to `O=c1oc(-c2cccs2)nc2sc3c(c12)CCCC3`, the “cell-surface Lgr5 expression” value is inactive: 1.24.
The value for `c1(c(c2CCCc2s1)C#N)NC(C1C(C)(C)C1\C=C(/Cl)Cl)=O` (stereo not given) was inactive: 1.11.
The value for `O=C1Nc2ccc(Br)cc2/C1=N/Nc1nnn[nH]1` was inactive: 1.01; that for `N#Cc1cnc(N2CCCCC2)nc1N` was inactive: 0.972; that for `Cc1ccc2c(c1)/C(=C/c1ccc3c(c1)OCO3)c1cccnc1-2` was inactive: 1.01.
With `COc1c(C=O)c(C)nn1C`, the “cell-surface Lgr5 expression” value was inactive: 1.26.
The value for `Cc1cc2c(c(=O)[nH]1)C(=O)OC2` was inactive: 1.45; that for `COC(=O)c1cccoc1=O` was inactive: 1.04; that for `CCCc1[nH]nc2c1C1(CC[C@H]3CO[C@@H]1O3)C(C#N)=C(N)O2` (stereo not given in full) was inactive: 1.12.
The value for `O=Cc1ccc(Br)s1` was inactive: 0.992; that for `Cc1cnn(C(C)c2nnc(NC3CC3)s2)c1` (stereo not given) was inactive: 1.12; that for `CC1(C)NC(=O)N(CC(O)CN2C(=O)NC(C)(C)C2=O)C1=O` was inactive: 1.63.
The result for `OC1CC(C(F)(F)F)Oc2ccccc21` (stereo not given) reads inactive: 1.12; that for `Fc1ccc(Nc2ncc(F)c(Nc3ccc(F)c(Cl)c3)n2)cc1Cl`, inactive: 1.37.
For the compound `Fc1ccc(NC(=S)N2CCCC2)cc1`, the “cell-surface Lgr5 expression” value is inactive: 1.18.
The value for `FC(F)(F)c1ccc(/C=N/N2CCN(C3c4ccccc4-c4ccccc43)CC2)cc1` was inactive: 1.31; that for `O=S(=O)(c1ccc(F)cc1)N1CCCCC1` was inactive: 1.29.
With `O=C(Cc1cccs1)N/N=C\c1cccs1`, the “cell-surface Lgr5 expression” value is inactive: 1.08.
The value for `CCOC(=O)CSC1=C(C#N)[C@H](c2ccccc2[N+](=O)[O-])C(C(C)=O)=C(C)N1` was inactive: 0.948; that for `C=CCn1c(SCc2ccc3nonc3c2)nnc1-c1cccnc1` was inactive: 1.31; that for `CC(CCO)c1cc(C(C)(C)C)c(O)c(C(C)(C)C)c1` (stereo not given) was inactive: 1.03.
The result for `CN(C)c1nc(/C(N)=N/O)nc(N(C)C)n1` reads inactive: 0.975; that for `Cn1c(COc2ccccc2)nn(C2c3ccccc3Oc3ccccc32)c1=S`, inactive: 0.971.
The result for `CCC(C)NS(=O)(=O)c1cc(Cl)ccc1Cl` (stereo not given) reads inactive: 1.08.
Take `CCCCCc1c2c(C)c(C(=O)OCC)nc-2cc2n1C(C)C(C)=C2C.Cl` (stereo not given): the “cell-surface Lgr5 expression” value is inactive: 1.18.
The value for `Cc1ccc(C)c(N=C=S)c1` was inactive: 1.4.
With `CSc1nc2c(cc1C#N)CCCC2`, the “cell-surface Lgr5 expression” value was inactive: 1.02.
As to `Cn1cc(Cl)c(C(=O)N/N=C/C2CC=CCC2)n1` (stereo not given), the “cell-surface Lgr5 expression” value is inactive: 1.15.
The result for `CC1=NN(S(=O)(=O)c2cnn(C)c2)C(O)(C(F)(F)F)C1` (stereo not given) reads inactive: 1.13.
The value for `NNc1ccc(Oc2ccccc2)c(S(=O)(=O)O)c1` was inactive: 1.22; that for `COC(=O)c1nonc1N` was inactive: 0.942.
The value for `CCN1C(=O)N(CC)C2OCOC21` (stereo not given) was inactive: 1.07; that for `Cn1cc(C(C2=C(O)CC(C)(C)CC2=O)C2=C(O)CC(C)(C)CC2=O)cn1` was inactive: 1.27; that for `O=C(COC(=O)c1cc2ccccc2o1)C1=CC2C=CC=CC2O1` (stereo not given) was inactive: 1.21.
Turning to `CSc1ccc(C2C(C#N)=C(N)N3C(=C2C#N)Sc2ccccc23)cc1` (stereo not given), the “cell-surface Lgr5 expression” value was inactive: 1.11.
The result for `COc1ccc2c(ccc[n+]2[O-])c1` reads inactive: 1.54; that for `CS(=O)(=O)Oc1cc2c(cc1[N+](=O)[O-])OCO2`, inactive: 1.02.
The value for `Cc1cc(C(C)c2cc(C)cc(C(C)(C)C)c2O)c(O)c(C(C)(C)C)c1` was inactive: 1.53.
In the case of `Cc1sc2ccc3sccc3c2[n+]1CCCS(=O)(=O)[O-]`, the “cell-surface Lgr5 expression” value is inactive: 1.22.
The result for `CC1CCc2c(sc3nc(-c4ccco4)oc(=O)c23)C1` (stereo not given) reads inactive: 1.15; that for `O=S(=O)(Cc1ccc(Cl)cc1Cl)c1nc2cccnc2[nH]1`, inactive: 1.05; that for `Oc1cc(O)c2sc3nc4c(cc3c2n1)CCCCC4`, inactive: 1.1.
As to `N/C(=N\OCC(=O)N1CCCCC1)c1nonc1N`, the “cell-surface Lgr5 expression” value was inactive: 1.1.
The result for `O/N=C\c1ccc2ccccc2c1` reads inactive: 0.87; that for `CCc1nccn1S(=O)(=O)c1nc(C)c(Cl)c(C)c1C#N`, inactive: 1.31; that for `O=C1NCCN1C(=O)N(c1ccccc1)c1ccccc1`, inactive: 0.949.
The value for `CC1(C)Cc2noc(N)c2C(C)(C)N1O` was inactive: 1.09; that for `S=c1n(CN2CCOCC2)nnn1-c1ccccc1` was inactive: 1.16; that for `O=S(=O)(NC1CC2CCC1C2)c1ccc2c(c1)OCCO2` (stereo not given) was inactive: 1.32.
For the compound `CC1CC(C(F)(F)C(F)(F)F)n2nc(C(=O)O)cc2N1` (stereo not given), the “cell-surface Lgr5 expression” value is inactive: 1.19.
The value for `Clc1ccc(-c2nc3sc(-c4ccc(Cl)cc4)nc3s2)cc1` was inactive: 1.32; that for `CCCCC(CC)C(=O)Nc1nnc(C(C)C)s1` (stereo not given) was inactive: 1.24.
The result for `CS(=O)(=O)Nc1ccc(F)c(F)c1` reads inactive: 1.04; that for `Nc1cc(=O)[nH]c(=S)[nH]1`, inactive: 1.22; that for `O=C(O)c1c(F)c(F)c(F)c(F)c1C(=O)O`, inactive: 0.899.
The result for `CC(=C/CCC1(C(NC(O1)=O)(O)C)C)/C` (stereo not given) reads inactive: 1.01; that for `CC1=CNc2nonc2NC1=O`, inactive: 1.23.
Turning to `O=C(Cn1cc([N+](=O)[O-])cn1)N1CCOCC1`, the “cell-surface Lgr5 expression” value is inactive: 1.62.
The result for `O=c1c2ccccc2cnn1Cc1ccon1` reads inactive: 1.08.
